# Source: PubChem BioAssay AID493014 (National Center for Advancing Translational Sciences (NCATS), 2011)
# In all, about 340,000 compounds went through this assay and about 170 (0.05%) were called active. This list was built around the results that the source calls inconclusive (neither active nor inactive); the mix of calls is not that of the screen. Calls follow the shape of the dose curve; as a rule, active = well fitted inhibition curve with a large enough effect in the signal ratio, with a control signal flat (not every such curve was filed as active); inconclusive = small, poorly fitted or top-dose-only effect, or effect the other way, or a change in a side signal; inactive = flat fitted curve, though single readings scatter; the % refers to the signal ratio. Potencies of inconclusive entries are doubtful fits and often do not repeat.
# Assay: qHTS Assay to Find Inhibitors of Chronic Active B-Cell Receptor Signaling;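 as to activity change, negative = inhibition: plate controls were basal doxycycline-induced cells for no effect and cells given 10 µM MG132 for full effect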
# Details: ABC-DLBCL IkBa-CBG/CBR reporter, luminescence ratio (green luciferase fused to IkBa over red control in TMD8 lymphoma cells), 4 h; activity change, negative = inhibition: at 46.1 µM (top of the series)
# Summary of the method: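 TMD8 ABC-DLBCL cells carrying doxycycline-inducible green luciferase fused to IkappaBalpha plus unfused red luciferase were exposed to compounds (up to 46 uM) for 4 hrs at 37C. Activity came from the overlap-corrected green/red luminescence ratio.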
# Potency is read from the fitted curve at half-maximal effect.
SMILES,"activity change, negative = inhibition",Potency
Cn1cccc1/C=C1\SC(=S)N(CC(=O)O)C1=O,inactive: 3.8%,
CCS(=O)(=O)c1ccc2oc(Nc3ccc(OC)c(OC)c3)nc2c1,inconclusive: -7.04%,
FC(F)(F)c1ccccc1NC(=S)N1CCN(Cc2ccc3c(c2)OCO3)CC1,inconclusive: -9.51%,
O=C(NCC(=O)N1CCN(c2ccccc2F)CC1)c1ccc(Br)o1,inactive: -9.22%,
O=C(/C=C/c1ccc([N+](=O)[O-])cc1)Nc1cccc(C(=O)Nc2ccccc2C(=O)O)c1,,"inconclusive: 31.6 µM [falling, single point]"
Cc1cccc(NC(=O)c2nc[nH]c2C(=O)NC2CCN(C(=O)OC(C)(C)C)CC2)c1,inconclusive: 0.228%,
CC(C)(C)c1ccc(C(=O)Nc2nnc(C3=COCCO3)o2)cc1,inactive: -6.9%,
COc1cccc2cc(NC(=O)C3CCCCC3)c(=O)oc12,,"inconclusive: 2.51 µM [falling, partial curve, poor fit]"
O=C(NC1CCCCC1)NC12CC3CC(CC(C3)C1)C2,inconclusive: 11.5%,
COc1ccc(C2C(=O)N(C3CCCCCC3)CC(=O)N2CCc2ccccc2)cc1 (centres undefined),inconclusive: -15.6%,
CCN(c1ccc(C)cc1C)S(=O)(=O)c1nnc(NC(=O)C(C)(C)C)s1,inactive: -6.19%,
COc1cccc(NC(=O)CCSc2ccc(C)cc2)c1,inconclusive: -18.2%,
CCN(C(=O)CSc1nnc(-c2ccccc2C)n1C)c1c(N)n(Cc2ccccc2)c(=O)[nH]c1=O,inconclusive: 0.938%,
COc1ccc(OC)c(NCc2cccn2-c2nnc(N3CCC(C)CC3)s2)c1,inconclusive: -2.43%,
O=C(CC1SC(N2CCOCC2)=NC1=O)Nc1ccccc1Cl (centres undefined),,"inconclusive: 29.1 µM [falling, single point]"
O=C(N/N=C/c1cccc(O)c1)c1cc2c(ccc3ccccc32)o1,,"inconclusive: 8.91 µM [falling, partial curve, poor fit]"
COc1ccc(CNCC(O)(c2ccc(Cl)cc2)c2ccc(Cl)cc2)cc1OC,inconclusive: 18.9%,
COc1ccccc1N1C(=O)CC(Sc2ccccc2N)C1=O (centres undefined),,"inconclusive: 2.82 µM [falling, full curve]"
O=C(/C=C/c1ccco1)OCC1CCCN2CCCCC12 (centres undefined),inactive: -1.1%,
O=C(NNc1nc(-c2ccccc2)cs1)c1ccco1,inconclusive: -2.07%,
COc1ccc(NC2CCCN(C(=O)c3ccccc3C(F)(F)F)C2)cc1 (centres undefined),inactive: -4.3%,

SMILES,"activity change, negative = inhibition",Potency
Cn1nc(C(F)(F)F)c(C(=O)Nc2ccc(F)cc2F)c1Sc1cccc(Cl)c1,,"inconclusive: 31.6 µM [activator, single point]"
CCCc1cc(=O)[nH]c(SCc2cccnc2)n1,,"inconclusive: 29.1 µM [falling, single point]"
O=c1oc(/C=C/c2ccc([N+](=O)[O-])s2)nc2ccccc12,inconclusive: -22.4%,
c1csc(-c2nnc(N3CCCCCC3)c3ccccc23)c1,inconclusive: 9.3%,
COc1ccc(OC)c(/C=C2\SC(=S)N(C(C(=O)O)c3ccccc3)C2=O)c1 (centres undefined),inconclusive: -0.265%,
Cc1cc(NC(=O)CSc2nnc(Nc3ccccc3C)s2)no1,inconclusive: -7.32%,
COc1ccc(CN(Cc2ccc(C(=O)O)cc2)C(=S)Nc2ccccc2Cl)cc1OC,,"inconclusive: 20 µM [falling, partial curve]"
CN1C(=O)CSc2ccc(NC(=O)N3CCc4ccccc43)cc21,inconclusive: 2.17%,
O=c1c(-c2ccc3c(c2)OCCO3)coc2cc(O)cc(O)c12,,"inconclusive: 25.9 µM [falling, single point]"
CC(C)COC(=O)c1cc(=O)[nH]c2ccccc12,inconclusive: 0.211%,
O=C(c1cccc(S(=O)(=O)N2CCCCCC2)c1)N1CCN(c2ccccc2F)CC1,inactive: 3.89%,
COC(=O)CC1Oc2ccccc2N(Cc2ccc(C)cc2)C1=O (centres undefined),inconclusive: -0.674%,
Cc1cc(=O)oc2c(CN3CCCC3)c(O)ccc12,inactive: -1.44%,
COc1ccccc1N=Cc1c(C)[nH]n(-c2ccc(C)cc2C)c1=O,inactive: 16.3%,
CC(=O)c1ccc(OCCCC(=O)Nc2ccc(C)c(S(=O)(=O)N3CCOCC3)c2)cc1,inactive: -3.66%,
COc1ccc(S(=O)(=O)NC(CC(=O)NCC2CCCO2)c2ccco2)cc1 (centres undefined),inactive: 4.82%,
N#Cc1ccc(C(=O)CSc2n[nH]c(=O)n2-c2cccnc2)cc1,inconclusive: 7.37%,
Cc1ccc(S(=O)(=O)c2cc(O)ccc2O)cc1C,inactive: 3.96%,
CC(=O)N/N=C/c1cc([N+](=O)[O-])ccc1OCCOc1ccccc1,inconclusive: 11.2%,
COc1cc2nc(NC(=O)c3ccccc3)sc(=O)c2cc1OC,inconclusive: -5.98%,
CCOC(=O)c1ccc(N2C(=O)CC(N(C)CCc3ccc(OC)c(OC)c3)C2=O)cc1 (centres undefined),,"inconclusive: 23.1 µM [falling, partial curve, poor fit]"

SMILES,"activity change, negative = inhibition",Potency
CO/N=C(\Cn1ncc(N2CCCC2)c(Br)c1=O)c1ccc(Cl)cc1,inconclusive: -0.584%,
Cc1oc(-c2ccc(Cl)cc2)nc1CS(=O)CC(=O)NCCCN1CCN(Cc2ccccc2)CC1 (centres undefined),inconclusive: -11.6%,
COc1ccc2c(CCNC(=O)/C=C/c3ccc(OC)c(OC)c3)c[nH]c2c1,inactive: -6.63%,
CC1(C(=O)NNC(=S)NCc2ccco2)CC1(Cl)Cl (centres undefined),inconclusive: 2.91%,
CCN1CCN(C(c2cccs2)C(C)NC(=S)NC2CCCCC2)CC1 (centres undefined),inconclusive: 6.59%,
CCOC(=O)c1c(-c2ccc(F)cc2)csc1NC(=O)CCN1CCOCC1,inactive: -0.32%,
O=C1NCCN(Cc2ccc(-c3ccccc3)cc2)C1CC(=O)N1CCN(CCO)CC1 (centres undefined),inconclusive: 16.9%,
COc1cc(OC)c(OC)cc1/C=N/NC(=O)c1ccc2nc[nH]c2c1,,"inconclusive: 17.8 µM [falling, partial curve, poor fit]"
Cc1ccc(S(=O)(=O)N2CCN(c3ccc([N+](=O)[O-])c4cccnc34)CC2)cc1,inconclusive: -7.48%,
CC1(C)CC(=O)C(C=Nc2cccnc2)=C(O)C1,inconclusive: 1.08%,
COc1ccc(/C=C(\C#N)C(=O)NCC2CCCO2)cc1OC (centres undefined),inactive: -1.14%,
COc1cc(C(Nc2ccc3c(c2)OCO3)C(=O)NC2CCCCC2)cc(OC)c1OC (centres undefined),inconclusive: 3.23%,
COc1cc(OC)c(C(=O)OCC(=O)Nc2ccc(N3CCOCC3)cc2)cc1OC,inconclusive: 0.0363%,
O=c1[nH]c(CSc2nnc(-c3ccccc3)n2-c2ccccc2)nc2ccccc12,inconclusive: 1.3%,
COc1cc(OC)c(Cl)cc1N,inactive: -0.0277%,
O=C1CC(c2ccccc2)CN1C(=O)c1cncc(Br)c1 (centres undefined),inconclusive: 14.4%,
CCCCOc1ccc(-c2cc(C(=O)NNC(=S)NCC)c3ccccc3n2)cc1,,"inconclusive: 29.1 µM [rising, single point]"
Cc1cc(C(F)F)nn1CC(=O)Nc1cc([N+](=O)[O-])ccc1F,inconclusive: -13.4%,
O=C(NNC(=O)c1ccc2ccccc2c1O)c1cccs1,,"inconclusive: 3.55 µM [rising, partial curve, poor fit]"
S=c1[nH]nc(Cc2ccccc2)n1-c1ccccc1,inconclusive: 13.6%,
O=C(Nc1nc(-c2ccco2)c(-c2ccco2)s1)c1ccc(F)cc1F,inconclusive: 8.33%,

SMILES,"activity change, negative = inhibition",Potency
CCCC(=O)c1ccc(N2CCN(S(=O)(=O)c3ccccc3)CC2)c(F)c1,inconclusive: 0.135%,
O=C(NCC1CC1)c1ccc2c3n(nc2c1)-c1ccccc1CO3,inconclusive: 0.0219%,
O=C(NOC(=O)c1c(F)cccc1Cl)c1ccc(Cl)c(Cl)c1,inconclusive: 4.18%,
c1ccc(C2=NN(c3ccccc3)C(c3ccco3)C2)cc1 (centres undefined),,"inconclusive: 11.2 µM [rising, partial curve, poor fit]"
O=C(Cc1nnc(NC(=O)Nc2ccc(Cl)cc2)s1)NCc1ccccc1,inconclusive: 3.99%,
COc1cccc(OCC(=O)Nc2ccncc2)c1,inactive: -0.22%,
CCOc1ccc(CCNC(=O)c2ccc(CS(=O)(=O)Cc3ccccc3Cl)o2)cc1OCC,inconclusive: -9.97%,
CS(=O)(=O)N1CCN(c2ccc(NC(=S)NC(=O)c3cccs3)cc2)CC1,,"inconclusive: 35.5 µM [rising, partial curve, poor fit]"
Cc1ccc2c(c1)cc(CN(Cc1ccc3c(c1)OCO3)C(=O)c1cnccn1)c1nnnn12,inactive: 0.689%,
CC(C)(C)c1ccc(OCCC(=O)NC2=NCCS2)cc1,inactive: -4.84%,
C/C(=N\NC(=O)c1cc(Br)ccc1O)c1cccc(NC(=O)c2ccccc2F)c1,inconclusive: 226%,
COc1cc2c(cc1OC)CN(S(=O)(=O)c1ccc3c(c1)OCCO3)CC2,inactive: -5.66%,
CCOC(=O)c1c(-c2ccccc2)csc1/N=C/C1C(=O)CCCC1=O,inconclusive: 6.74%,
COc1ccccc1/C=C/C=N/NC(=O)CCn1nnc2ccccc21,inconclusive: -25.7%,
Oc1cccc2ccc(Nc3ccccn3)nc12,,"inconclusive: 1.46 µM [rising, full curve]"
Cc1ccc(C(=O)NCCc2ccc(F)cc2)s1,,"inconclusive: 22.4 µM [falling, single point]"
Cc1cc(NC(=O)CS(=O)(=O)c2cn(Cc3ccccc3Cl)c3ccccc23)no1,inconclusive: -3.37%,
CCOC(=O)C1CCN(S(=O)(=O)c2ccc(Br)c(OCC)c2)CC1,inactive: -4.84%,
Cc1nn(C(C)C(=O)NCCCc2ccccc2)c(=O)c2cc3occc3n12 (centres undefined),inconclusive: -1.52%,
Cc1nc2ccccc2n1CSc1ccccc1,inconclusive: 3.16%,
CSc1ccccc1OCc1cc(C(=O)NCCC2CCCCO2)no1 (centres undefined),,"inconclusive: 35.5 µM [falling, single point]"

# Some values from the entries so far:
# Under activity change, negative = inhibition, O=C(NCC(=O)N1CCN(c2ccccc2F)CC1)c1ccc(Br)o1 shows inactive: -9.22%
# Under activity change, negative = inhibition, CC(=O)c1ccc(OCCCC(=O)Nc2ccc(C)c(S(=O)(=O)N3CCOCC3)c2)cc1 shows inactive: -3.66%
# Under Potency, Cn1nc(C(F)(F)F)c(C(=O)Nc2ccc(F)cc2F)c1Sc1cccc(Cl)c1 shows inconclusive: 31.6 µM [activator, single point]
# Under activity change, negative = inhibition, CC1(C(=O)NNC(=S)NCc2ccco2)CC1(Cl)Cl (centres undefined) shows inconclusive: 2.91%
